*1 amine or outer side, *2 acyl side, *3 side chain or, on linkers, in order; H or OH if unused. [ ]: non-standard residue; d: D form. azaPro = O=C(N1CCCN1[*:1])[*:2]
Experiment: general procedure: peptide synthesis; Rink resin NOVASYN TGR resin LL (0.23 mmol/g)
Conditions: whole synthesis, scale of the general procedure 11.7 g resin

Substance: Ac-L[azaPro]FFD-NH2 (SMILES CC(=O)N[C@@H](CC(C)C)C(=O)N1CCCN1C(=O)N[C@@H](Cc1ccccc1)C(=O)N[C@@H](Cc1ccccc1)C(=O)N[C@@H](CC(=O)O)C(N)=O)
- final purity (method not given): purity 95%

Reference: patent US20060281686A1 (priority 2002, published 2006)
